# Literature values, collected in US20240252517A1, “MINERALOCORTICOID RECEPTOR ANTAGONISTS FOR THE PREVENTION AND/OR TREATMENT OF A CORONAVIRUS INFECTION” (Imaginatives Group Limited, priority 2021, published 2024).
# At least one compound was matched to its structure with a doubt left.
# Test system: COVID-19
# Conditions: control group 24.6%; cited from earlier work
structure (smiles),measurement,value
"C[C@@H]1C[C@H]2[C@@H]3CCC4=CC(=O)C=C[C@]4(C)[C@@]3(F)[C@@H](O)C[C@]2(C)[C@@]1(O)C(=O)CO [HIDEX, dexamethasone]",Mortality,21.6%
